Record: PubChem BioAssay AID1259254 (NCATS, 2017)
In all, the deposit lists about 59,000 reagents; below is an unselected part. About 1,550 of them (2.6%) were called active. 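G2 share is only a proxy for re-replication; each gene was hit by three separate siRNAs, and active genes were retested.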 The raw values are shown without normalisation. A number with no mark means an inactive call. The numbers tell different reagents against one gene apart. No sequences are given here. Not given: the amount of reagent.

Aim: 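Genome-wide screen for genes that prevent DNA re-replication in cancer cells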 (primary screen)
Cell system: human HCT116 colorectal cancer cells
Knock-down reagent: single siRNA against human genes
Time to read-out: 3 days
Measured: 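Nuclei stained with Hoechst and imaged; cell-cycle phase assigned by DNA content; G2 share scaled per plate, non-targeting siRNA 0%, GMNN siRNA 100%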
Direction: G2 robust z-score and G2 cells, % of GMNN control: higher = more G2 cells, more excess DNA replication; raw share of cells in G2: higher = larger share of cells with G2 DNA content
Active means: 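An siRNA counts as active if its G2 robust z-score lies at least 5 MADs above the screen median; here such calls match roughly 38% of GMNN control or more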

gene symbol,reagent,G2 robust z-score,"G2 cells, % of GMNN control",raw share of cells in G2 (%)
PVRIG (PVR related immunoglobulin domain containing),1,0.496,6.46,4.4
PVRIG (PVR related immunoglobulin domain containing),2,0.0811,3.54,6.12
PVRIG (PVR related immunoglobulin domain containing),3,1.04,10.3,9.23
NSMCE2 (NSE2 SUMO ligase component of SMC5/6 complex),1,0.401,5.79,5.75
NSMCE2 (NSE2 SUMO ligase component of SMC5/6 complex),2,-1.01,-4.17,1.43
NSMCE2 (NSE2 SUMO ligase component of SMC5/6 complex),3,-0.389,0.229,3.34
S1PR2 (sphingosine-1-phosphate receptor 2),1,0.0772,3.51,7.1
S1PR2 (sphingosine-1-phosphate receptor 2),2,-0.52,-0.691,4.28
S1PR2 (sphingosine-1-phosphate receptor 2),3,9.49 (active),69.8,24.7
TRPC4AP,1,2.02,17.2,14
TRPC4AP,2,5.68 (active),42.9,18.4
TRPC4AP,3,-1.11,-4.86,2.4
CCDC87 (coiled-coil domain containing 87),1,-1.39,-6.82,1.9
CCDC87 (coiled-coil domain containing 87),2,-0.166,1.8,4.88
CCDC87 (coiled-coil domain containing 87),3,-0.932,-3.59,1.99
TPH2 (tryptophan hydroxylase 2),1,1.88,16.2,11.9
TPH2 (tryptophan hydroxylase 2),2,-1.27,-5.98,2.89
TPH2 (tryptophan hydroxylase 2),3,0.245,4.69,6.25
KCTD1 (potassium channel tetramerization domain containing 1),1,-0.0767,2.43,3.93
KCTD1 (potassium channel tetramerization domain containing 1),2,3.16,25.2,11.9
KCTD1 (potassium channel tetramerization domain containing 1),3,0.836,8.85,6.63
PRODH2 (proline dehydrogenase 2),1,0.233,4.61,5.9
PRODH2 (proline dehydrogenase 2),2,2.74,22.2,14.9
PRODH2 (proline dehydrogenase 2),3,0.783,8.48,7.35
OR5I1 (olfactory receptor family 5 subfamily I member 1),1,0.976,9.83,8.84
OR5I1 (olfactory receptor family 5 subfamily I member 1),2,2.84,23,13.6
OR5I1 (olfactory receptor family 5 subfamily I member 1),3,-0.189,1.64,3.79
CREBL2 (cAMP responsive element binding protein like 2),1,1.65,14.6,12.1
CREBL2 (cAMP responsive element binding protein like 2),2,-1.13,-5,2.26
CREBL2 (cAMP responsive element binding protein like 2),3,0.0641,3.42,4.86
MIR4500HG (MIR4500 host gene),1,8.58 (active),63.3,28.1
MIR4500HG (MIR4500 host gene),2,1.27,11.9,7.92
MIR4500HG (MIR4500 host gene),3,0.0798,3.53,4.32
GRIN2B (glutamate ionotropic receptor NMDA type subunit 2B),1,2.1,17.7,11.7
GRIN2B (glutamate ionotropic receptor NMDA type subunit 2B),2,-0.3,0.859,5.07
GRIN2B (glutamate ionotropic receptor NMDA type subunit 2B),3,-1.09,-4.67,2.55
MFSD6 (major facilitator superfamily domain containing 6),1,-0.896,-3.34,2.41
MFSD6 (major facilitator superfamily domain containing 6),2,-0.888,-3.28,2.89
MFSD6 (major facilitator superfamily domain containing 6),3,0.0472,3.3,4.28
WIPF2 (WAS/WASL interacting protein family member 2),1,-0.945,-3.68,1.78
WIPF2 (WAS/WASL interacting protein family member 2),2,-0.901,-3.37,2.7
WIPF2 (WAS/WASL interacting protein family member 2),3,-0.751,-2.31,2.2
FLJ45513,1,-0.57,-1.04,2.7
FLJ45513,2,0.184,4.26,5.56
FLJ45513,3,-0.613,-1.34,2.88
CCM2L (CCM2 like scaffold protein),1,0.489,6.41,6.59
CCM2L (CCM2 like scaffold protein),2,0.524,6.65,5.21
CCM2L (CCM2 like scaffold protein),3,-0.0988,2.27,3.4
SNX9 (sorting nexin 9),1,-0.611,-1.33,2.32
SNX9 (sorting nexin 9),2,-0.495,-0.518,5.67
SNX9 (sorting nexin 9),3,-0.102,2.25,4.34
TMOD4 (tropomodulin 4),1,-0.0548,2.58,4.84
TMOD4 (tropomodulin 4),2,0.274,4.89,6.4
TMOD4 (tropomodulin 4),3,0.501,6.49,5.3

Sorted by “G2 robust z-score” (low to high): some entries from above
gene symbol,reagent,G2 robust z-score,"G2 cells, % of GMNN control",raw share of cells in G2 (%)
WIPF2 (WAS/WASL interacting protein family member 2),1,-0.945,-3.68,1.78
WIPF2 (WAS/WASL interacting protein family member 2),2,-0.901,-3.37,2.7
MFSD6 (major facilitator superfamily domain containing 6),1,-0.896,-3.34,2.41
MFSD6 (major facilitator superfamily domain containing 6),2,-0.888,-3.28,2.89
WIPF2 (WAS/WASL interacting protein family member 2),3,-0.751,-2.31,2.2
FLJ45513,3,-0.613,-1.34,2.88
FLJ45513,1,-0.57,-1.04,2.7
CCM2L (CCM2 like scaffold protein),3,-0.0988,2.27,3.4
MFSD6 (major facilitator superfamily domain containing 6),3,0.0472,3.3,4.28
FLJ45513,2,0.184,4.26,5.56
CCM2L (CCM2 like scaffold protein),1,0.489,6.41,6.59
CCM2L (CCM2 like scaffold protein),2,0.524,6.65,5.21

The list goes on:
gene symbol,reagent,G2 robust z-score,"G2 cells, % of GMNN control",raw share of cells in G2 (%)
CCNK (cyclin K),1,2.58,21.1,12.7
CCNK (cyclin K),2,-0.525,-0.725,4.21
CCNK (cyclin K),3,-1.09,-4.7,3.02
MID1IP1 (MID1 interacting protein 1),1,0.26,4.8,6.24
MID1IP1 (MID1 interacting protein 1),2,3.68,28.9,18.3
MID1IP1 (MID1 interacting protein 1),3,-1.06,-4.51,1.6
ZNF347 (zinc finger protein 347),1,0.278,4.92,4.53
ZNF347 (zinc finger protein 347),2,0.672,7.7,9.39
ZNF347 (zinc finger protein 347),3,-0.618,-1.38,3.2
SLC10A7,1,-0.951,-3.72,2.87
SLC10A7,2,0.0185,3.1,4.38
SLC10A7,3,0.0591,3.38,3.43
RDH16 (retinol dehydrogenase 16),1,-0.684,-1.85,3.7
RDH16 (retinol dehydrogenase 16),2,7.01 (active),52.3,23.4
RDH16 (retinol dehydrogenase 16),3,-1.23,-5.68,3.27
PLPPR5 (phospholipid phosphatase related 5),1,-0.256,1.17,4.02
PLPPR5 (phospholipid phosphatase related 5),2,-1.3,-6.15,0.898
PLPPR5 (phospholipid phosphatase related 5),3,0.238,4.64,4.23
IMPG1 (interphotoreceptor matrix proteoglycan 1),1,-1.3,-6.15,2.81
IMPG1 (interphotoreceptor matrix proteoglycan 1),2,-0.114,2.17,5
IMPG1 (interphotoreceptor matrix proteoglycan 1),3,-1.74,-9.28,2.15
TBXAS1 (thromboxane A synthase 1),1,0.248,4.71,6.48
TBXAS1 (thromboxane A synthase 1),2,-1.01,-4.13,2.77
TBXAS1 (thromboxane A synthase 1),3,0.0155,3.08,6.04
"RNPC3 (RNA binding region (RNP1, RRM) containing 3)",1,2.46,20.3,12.3
"RNPC3 (RNA binding region (RNP1, RRM) containing 3)",2,-1.07,-4.55,2.25
"RNPC3 (RNA binding region (RNP1, RRM) containing 3)",3,-1.14,-5.07,1.52
RCAN3 (regulator of calcineurin 3),1,1.49,13.5,8.48
RCAN3 (regulator of calcineurin 3),2,-0.126,2.08,4.85
RCAN3 (regulator of calcineurin 3),3,3.39,26.8,17.1
SEPHS1 (selenophosphate synthetase 1),1,-0.243,1.26,6.87
SEPHS1 (selenophosphate synthetase 1),2,0.414,5.88,6.12
SEPHS1 (selenophosphate synthetase 1),3,-0.886,-3.27,2.75
